Laboratory results reported in PMC8064395.
Results are given in words; binding and its absence hold for the method and conditions named. Binding seen in cells or lysates may run through a third protein. These calls come from enrichment with a bait or labelling near it, and not all partners need be listed. Where a sequence is shown, tags or fusion partners need not be part of it.

Sequences of proteins named here, by UniProt entry; tags and fusion partners are left off.
UniProt Q87RK1: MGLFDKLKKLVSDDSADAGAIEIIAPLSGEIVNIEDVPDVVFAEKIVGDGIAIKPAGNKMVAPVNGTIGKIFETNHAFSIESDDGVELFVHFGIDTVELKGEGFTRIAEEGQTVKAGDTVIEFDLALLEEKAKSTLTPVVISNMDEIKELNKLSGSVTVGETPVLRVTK
UniProt Q87L07: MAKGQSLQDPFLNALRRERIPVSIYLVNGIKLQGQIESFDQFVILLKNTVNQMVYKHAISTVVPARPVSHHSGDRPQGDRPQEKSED
UniProt Q87RR7: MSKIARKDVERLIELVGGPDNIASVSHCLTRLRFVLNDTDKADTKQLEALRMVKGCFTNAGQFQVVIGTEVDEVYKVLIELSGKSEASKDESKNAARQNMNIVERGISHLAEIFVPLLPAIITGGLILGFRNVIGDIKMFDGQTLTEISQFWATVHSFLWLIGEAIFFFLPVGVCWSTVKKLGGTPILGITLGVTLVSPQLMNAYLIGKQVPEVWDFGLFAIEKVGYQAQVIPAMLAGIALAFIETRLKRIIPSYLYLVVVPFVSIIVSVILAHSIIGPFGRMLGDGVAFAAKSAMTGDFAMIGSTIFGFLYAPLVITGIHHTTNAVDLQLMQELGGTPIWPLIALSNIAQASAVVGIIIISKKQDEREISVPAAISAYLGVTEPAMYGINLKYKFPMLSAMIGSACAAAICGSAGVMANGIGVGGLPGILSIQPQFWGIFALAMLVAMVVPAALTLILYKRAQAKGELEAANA

Target: T1, hexahistidine-tagged VP0610 (Vibrio parahaemolyticus RIMD2210633) (UniProt Q87S14)
T1 sequence: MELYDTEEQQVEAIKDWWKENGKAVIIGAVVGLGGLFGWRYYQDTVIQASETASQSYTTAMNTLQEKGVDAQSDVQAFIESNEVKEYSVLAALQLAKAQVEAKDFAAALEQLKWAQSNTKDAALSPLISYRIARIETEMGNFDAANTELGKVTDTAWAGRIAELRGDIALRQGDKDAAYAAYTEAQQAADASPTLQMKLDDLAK
Assay: affinity purification with mass spectrometry; His-VP0610 immobilized on Ni Sepharose; V. parahaemolyticus WT protein loaded; eluted with different elution buffer concentrations; SDS-PAGE, silver staining; bands identified by mass spectrometry; binding buffer 20 mM sodium phosphate, 500 mM sodium chloride, 30 mM imidazole, pH 7.4; only the target purified

| Substance | binding |
| --- | --- |
| adenylate cyclase (CyaA) | binds |
| VP0793, sugar PTS system EIIA component (from UniProt Q87RK1 1-169) | binds |
| RNA binding protein (Hfq) (from UniProt Q87L07 1-87) | binds |
| VP0710, sugar PTS system EIIA component (from UniProt Q87RR7 1-474) | binds |
